Measured values as given in article PMC9740559, “Molecular and Pharmacological Characterization of β-Adrenergic-like Octopamine Receptors in the Endoparasitoid Cotesia chilonis (Hymenoptera: Braconidae)” (International Journal of Molecular Sciences, 2022).

What was measured:
CcOctβ1R = system: T1, CcOctβ1R; details: read-out: CcOctβ1R / IC50; antagonist; non-saturating OA (100 nM); 100 μM IBMX; 25 °C
T1 construct: gene Octβ1R
Description: inhibition of OA-induced cAMP in stable CHO-K1 cells (cAMP immunoassay) on CcOctβ1R

CcOctβ2R = system: T2, CcOctβ2R; details: read-out: CcOctβ2R / IC50; antagonist; non-saturating OA (30 nM); 100 μM IBMX; 25 °C
T2 construct: gene Octβ2R
Description: inhibition of OA-induced cAMP in stable CHO-K1 cells (cAMP immunoassay) on CcOctβ2R

CN1CCN2c3ccccc3Cc3ccccc3C2C1 (centres unmarked) [Mianserin]
IC50 (CcOctβ1R): 157 nM
IC50 (CcOctβ2R): 75.8 nM
